Measured values published in patent US9388216B2, “Methods of treating reproductive cancer” (Medical Research Council, priority 2006, dated 2016).
Some entries share one result that the patent states for a list of compounds. For at least one compound, name, drawing or mass did not settle the structure.

Tested on: GnRH-induced PARP cleavage (caspase 3 activation) in HEK293/rGnRHR cells
Assay: Inhibition of GnRH-induced PARP cleavage by chemical inhibitors
Details: 100 nM GnRH I or GnRH II, 48 h

Row | SMILES | block of total agonist induced caspase 3 activation
1 | COc1cc2ncnc(Nc3cccc(Cl)c3)c2cc1OC [AG1478] | more than 50%
2 | CC(C)(C)n1nc(-c2ccc(Cl)cc2)c2c(N)ncnc21 [PP2] | more than 50%
3 | COc1cccc(-c2cc(=O)c3ccccc3o2)c1N [PD98059] | more than 50%
4 | COc1ccc2c(c1)c(C1=C(c3c[nH]c4ccccc34)C(=O)NC1=O)cn2CCCN(C)C [Gö 6983] | more than 50%
